Test results taken from PMC9454738.
Construct, isoform or probe ends are uncertain for at least one entry. For part of these data: A negative result means that nothing was seen under these conditions. For part of these data: The comparison behind a weaker result is the experiment's own reference, which may not be listed here.

Amino acid sequences for entries named in this document (tags omitted). A change or cut given only in a name is not applied to a line headed by its entry.
UniProt P08151: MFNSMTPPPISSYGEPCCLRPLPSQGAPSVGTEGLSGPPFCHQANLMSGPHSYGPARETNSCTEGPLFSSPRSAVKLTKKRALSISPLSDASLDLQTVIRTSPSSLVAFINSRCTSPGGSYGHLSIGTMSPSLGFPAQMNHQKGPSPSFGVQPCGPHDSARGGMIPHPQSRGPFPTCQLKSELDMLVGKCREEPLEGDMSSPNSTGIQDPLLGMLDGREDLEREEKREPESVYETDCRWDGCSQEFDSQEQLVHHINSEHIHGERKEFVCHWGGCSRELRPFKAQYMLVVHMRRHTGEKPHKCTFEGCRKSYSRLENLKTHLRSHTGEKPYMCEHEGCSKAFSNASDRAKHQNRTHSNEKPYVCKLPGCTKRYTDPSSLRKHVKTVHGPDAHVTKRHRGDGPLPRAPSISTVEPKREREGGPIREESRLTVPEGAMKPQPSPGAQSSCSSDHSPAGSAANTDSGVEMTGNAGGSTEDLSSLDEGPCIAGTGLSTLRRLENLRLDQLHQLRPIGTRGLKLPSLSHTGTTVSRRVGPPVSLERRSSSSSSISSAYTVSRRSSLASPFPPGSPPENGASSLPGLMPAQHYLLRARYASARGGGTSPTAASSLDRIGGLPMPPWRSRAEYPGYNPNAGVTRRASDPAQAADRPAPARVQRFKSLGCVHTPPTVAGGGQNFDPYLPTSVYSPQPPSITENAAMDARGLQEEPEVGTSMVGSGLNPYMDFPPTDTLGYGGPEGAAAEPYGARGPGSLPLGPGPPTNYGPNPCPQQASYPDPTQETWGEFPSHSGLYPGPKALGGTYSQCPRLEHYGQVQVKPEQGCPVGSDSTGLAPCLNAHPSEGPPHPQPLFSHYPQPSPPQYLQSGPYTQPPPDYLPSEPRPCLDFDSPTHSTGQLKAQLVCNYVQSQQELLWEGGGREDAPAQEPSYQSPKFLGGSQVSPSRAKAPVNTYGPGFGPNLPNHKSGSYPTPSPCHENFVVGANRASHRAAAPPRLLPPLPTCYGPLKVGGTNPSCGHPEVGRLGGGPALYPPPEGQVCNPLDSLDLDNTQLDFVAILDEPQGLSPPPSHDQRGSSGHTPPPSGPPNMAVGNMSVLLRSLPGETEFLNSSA
UniProt P40763: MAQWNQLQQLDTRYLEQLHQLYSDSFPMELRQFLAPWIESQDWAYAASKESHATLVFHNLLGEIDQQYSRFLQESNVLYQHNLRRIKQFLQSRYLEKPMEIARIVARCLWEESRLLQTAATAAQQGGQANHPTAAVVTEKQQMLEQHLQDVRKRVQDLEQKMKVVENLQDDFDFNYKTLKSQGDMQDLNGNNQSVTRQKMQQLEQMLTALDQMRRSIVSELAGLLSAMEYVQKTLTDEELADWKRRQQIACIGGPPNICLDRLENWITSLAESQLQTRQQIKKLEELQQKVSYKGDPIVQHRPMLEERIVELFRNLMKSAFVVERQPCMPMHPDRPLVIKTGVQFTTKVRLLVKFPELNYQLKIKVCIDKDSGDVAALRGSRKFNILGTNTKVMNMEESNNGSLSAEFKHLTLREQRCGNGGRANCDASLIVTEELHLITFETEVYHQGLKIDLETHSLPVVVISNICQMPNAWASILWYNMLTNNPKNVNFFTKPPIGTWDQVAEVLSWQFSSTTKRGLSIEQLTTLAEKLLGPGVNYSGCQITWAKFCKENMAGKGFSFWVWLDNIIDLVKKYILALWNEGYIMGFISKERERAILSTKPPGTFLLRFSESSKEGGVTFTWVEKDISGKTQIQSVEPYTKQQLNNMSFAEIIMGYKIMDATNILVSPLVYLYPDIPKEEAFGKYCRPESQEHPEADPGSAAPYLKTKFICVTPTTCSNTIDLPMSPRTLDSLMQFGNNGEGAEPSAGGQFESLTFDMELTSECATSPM

Tests used:
Assay in all cases: EMSA
[1] = system: N-tGLI1 (N-terminal truncated GLI1); settings: 50 mM NaCl, 200 mM KCl, 5 mM MgCl2, 10 mM EDTA, 5 mM DTT, 250 ug/mL BSA, 25% glycerol, 50 ng/uL poly dI-dC, recombinant protein, protein details: MBP tag cleaved with HRV 3C protease, label: 5' 6-FAM on both strands
GLI1 = GLI1 (UniProt P08151); settings: 50 mM NaCl, 200 mM KCl, 5 mM MgCl2, 10 mM EDTA, 5 mM DTT, 250 ug/mL BSA, 25% glycerol, 50 ng/uL poly dI-dC, commercial protein, label: 5' 6-FAM on both strands
STAT3 = STAT3 (UniProt P40763); settings: no drug; 50 mM NaCl, 200 mM KCl, 5 mM MgCl2, 10 mM EDTA, 5 mM DTT, 250 ug/mL BSA, 25% glycerol; 50 ng/uL poly dI-dC; commercial protein; label: 5' 6-FAM on both strands

**Q.** Does “CGAAGAGACCACCCAGGTAGCT (double strand) [GLI1/tGLI1 consensus probe]” bind ([1]; 100 uM KCZ (ketoconazole))?
**A.** binds more weakly

**Q.** Does “CGAAGAGACCACCCAGGTAGCT (double strand) [GLI1/tGLI1 consensus probe]” bind ([1]; 100 uM KCZ-7)?
**A.** binds more weakly

**Q.** Does “CGAAGAGACCACCCAGGTAGCT (double strand) [GLI1/tGLI1 consensus probe]” bind (GLI1; 100 uM KCZ (ketoconazole), binding not reduced)?
**A.** binds

**Q.** Does “CGAAGAGACCACCCAGGTAGCT (double strand) [GLI1/tGLI1 consensus probe]” bind (GLI1; 100 uM KCZ-7, binding not reduced)?
**A.** binds

**Q.** Does “CGAAGAGACCACCCAGGTAGCT (double strand) [GLI1/tGLI1 consensus probe]” bind (GLI1; no drug)?
**A.** binds

**Q.** Does “CGAAGAGACCACCCAGGTAGCT (double strand) [GLI1/tGLI1 consensus probe]” bind (STAT3)?
**A.** no binding
